Some entries share one result that the patent states for a list of compounds.
System: MDA-MB-435 cells
Test: MTT antiproliferative assay, MDA-MB-435
Details: as single agents

| SMILES | growth inhibition |
| --- | --- |
| Cn1cc(C2=C(c3cn(C)c4cc([N+](=O)[O-])ccc34)C(=O)NC2=O)c2ccccc21 [Compound II] | 10-15% |
| CC(=O)O[C@H]1C(=O)[C@@]2(C)[C@H]([C@H](OC(=O)c3ccccc3)[C@]3(O)C[C@H](OC(=O)[C@H](O)[C@@H](NC(=O)c4ccccc4)c4ccccc4)C(C)=C1C3(C)C)[C@]1(OC(C)=O)CO[C@@H]1C[C@@H]2O [Paclitaxel, paclitaxel] | 10-15% |
